## Primary screen of a compound library

The chains behind the UniProt entries cited, without tags or fusion partners.
UniProt E9BF75, entry or part of it: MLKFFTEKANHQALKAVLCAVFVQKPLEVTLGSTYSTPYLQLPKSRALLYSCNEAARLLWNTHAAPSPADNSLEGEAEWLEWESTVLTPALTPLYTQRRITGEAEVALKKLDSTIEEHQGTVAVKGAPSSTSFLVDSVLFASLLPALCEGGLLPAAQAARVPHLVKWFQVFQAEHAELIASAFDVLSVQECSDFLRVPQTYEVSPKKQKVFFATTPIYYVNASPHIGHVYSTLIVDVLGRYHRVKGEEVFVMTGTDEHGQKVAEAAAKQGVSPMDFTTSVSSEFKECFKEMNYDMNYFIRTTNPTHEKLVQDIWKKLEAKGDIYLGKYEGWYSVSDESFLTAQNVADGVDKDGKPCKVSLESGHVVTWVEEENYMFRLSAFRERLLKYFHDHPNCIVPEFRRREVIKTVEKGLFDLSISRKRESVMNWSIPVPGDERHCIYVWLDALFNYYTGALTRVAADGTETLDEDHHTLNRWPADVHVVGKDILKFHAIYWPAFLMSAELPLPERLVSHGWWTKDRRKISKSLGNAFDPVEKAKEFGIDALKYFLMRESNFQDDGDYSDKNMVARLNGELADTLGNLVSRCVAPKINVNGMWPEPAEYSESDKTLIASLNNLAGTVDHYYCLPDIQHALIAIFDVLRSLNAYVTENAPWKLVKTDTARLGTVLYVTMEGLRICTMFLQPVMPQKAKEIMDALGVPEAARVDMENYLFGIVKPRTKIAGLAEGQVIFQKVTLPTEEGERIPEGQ

LdMetRS: 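Primary screen of methionyl-tRNA synthetase; the read-out is not stated. Target: Methionyl-tRNA synthetase (putative), Leishmania donovani (UniProt E9BF75). The test concentration is not given. Values are per cent inhibition. Of about 68,000 compounds tested this way, about 24 (0.035%) reached 50% or more in at least one test.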
Mtb heat-shock: 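Assay on Mycobacterium tuberculosis, filed only as a heat shock assay from Cornell; the read-out is not stated. The concentration is filed as 10 mM, unlikely as a test dose, so the dose is not known. Higher reads as stronger inhibition (inferred: compounds with an IC50 in retests scored well above the rest). About 69,000 compounds were tested under these conditions; 1.4% (about 930) showed 50% or more at least once.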

All values are in %. The controls that fix the scale are not given in the record; negative values are as filed. This is an unselected part of the compounds tested.

Result for CC1CN(S(=O)(=O)c2cc(S(C)(=O)=O)ccc2Br)c2cccnc2O1 (stereo not shown) was LdMetRS: 18.75%; Mtb heat-shock: -6.725%.
Result for CCc1nc(CCNc2ccc(S(N)(=O)=O)cc2C#N)cs1 was LdMetRS: 17.27%; Mtb heat-shock: 5.756%.
Result for CCc1ccccc1-c1cc(C)nc(N)n1 was LdMetRS: 7.161%; Mtb heat-shock: -9.35%.
Result for O=C(NCCCNc1ccc(C(F)(F)F)cn1)c1ccccc1 was LdMetRS: 13.16%; Mtb heat-shock: 26.28%.
Result for CC(C)(O)c1cc(CC2(NCC3CCCCC3)COC2)no1 was LdMetRS: 3.729%; Mtb heat-shock: 6.803%.
Result for Cc1cccc(C(=O)N2CCCN(CCc3scnc3C)CC2)c1 was LdMetRS: 8.865%; Mtb heat-shock: 11%.
Result for COc1c(CNCCc2c[nH]c3cc(F)ccc23)c(C(C)C)nn1C was LdMetRS: 10.6%; Mtb heat-shock: 17.46%.
Result for CC(C)Oc1ccc(CN2CCN3CCN(C)CC3C2)cc1CO (stereo not shown) was LdMetRS: 5.376%; Mtb heat-shock: -18.77%.
Result for O=C(O)C(F)(F)F.O=C(O)C(F)(F)F.[H][C@]12C[C@@H](C(=O)NC)CO[C@@]1([H])CCN(Cc1ccc3ccccc3n1)C2 was Mtb heat-shock: -6.104%.
Result for COCCNC(=O)c1sc2ccccc2c1C1CCC(CN)CC1 (stereo not shown) was LdMetRS: 14.7%.
Result for Cn1cnc(S(=O)(=O)N2CCO[C@H]3[C@@H](OCC4CC4)CC[C@@H]32)c1 was LdMetRS: 9.489%.
Result for O=C(Cc1cccs1)N1CCC2(CC1)COCCN2CC1CC1.O=C(O)C(F)(F)F was Mtb heat-shock: 1.251%.
Result for CCOC(=O)C1(NC(=O)CCNc2cc(C)ccc2OC)CCCCC1 was LdMetRS: 13.28%; Mtb heat-shock: -4.447%.
Result for CC(NC(=O)N(C)Cc1ccsc1)c1ccc2c(c1)OCO2 (stereo not shown) was LdMetRS: 11.22%; Mtb heat-shock: -14.73%.
Result for CC(Oc1cccc(F)c1)C(=O)N(CC(N)=O)C1CCCC1 (stereo not shown) was LdMetRS: 18.44%; Mtb heat-shock: 12.56%.
Result for Cc1cc(-c2cnn(CCNC(=O)c3snnc3C)c2C2CC2)on1 was LdMetRS: 6.78%; Mtb heat-shock: -14.74%.
Result for CCN(CC(F)(F)F)C(=O)C1CCCN(Cc2ccno2)C1 (stereo not shown) was LdMetRS: 18.12%; Mtb heat-shock: 8.985%.
Result for O=C(c1cccs1)N1CCCC(c2cc(C(F)F)n3ncnc3n2)C1 (stereo not shown) was LdMetRS: 8.333%; Mtb heat-shock: -10.14%.
Result for COc1ccc(C[C@H]2CN(C(=O)c3cnoc3)CC[C@@H]2OC)cc1 was LdMetRS: 17.37%; Mtb heat-shock: -8.003%.
Result for Cc1cc(N2CCCCC2)nc(N(CCO)CCO)c1C#N was LdMetRS: 14.48%; Mtb heat-shock: -9.967%.
Result for COCc1nn(C(C)C)c2c1CCN(Cc1ccccn1)C2 was LdMetRS: 16.25%.
Result for COc1ccccc1CNC(C)c1ccc(-n2ccnc2)cc1.Cl (stereo not shown) was Mtb heat-shock: -19.85%.
Result for Cn1cc(C(C)(O)CNC(=O)c2cc(Br)cn2C)cn1 (stereo not shown) was LdMetRS: 13.52%; Mtb heat-shock: 1.25%.
Result for [H][C@@]12COC[C@]1(c1nc(C)no1)CN(C(=O)C1CCOCC1)C2 was Mtb heat-shock: -0.2001%.
Result for Cc1ccc(N2CC[C@@]3(O)CCN(S(C)(=O)=O)C[C@H]3C2)nn1 was LdMetRS: 3.927%.
Result for CC(=O)N1CCCN(C(C)c2ccc(Br)cc2)CC1 (stereo not shown) was LdMetRS: -0.7194%; Mtb heat-shock: -10.63%.
Result for Cc1ccc(C)c2c(O)cc(CNCCNC(=O)C(C)C)nc12 was LdMetRS: 7.784%; Mtb heat-shock: -6.93%.
Result for COCC1CN(C(=O)Nc2cc(Cl)cc(Cl)c2)CCO1 (stereo not shown) was LdMetRS: 1.397%; Mtb heat-shock: -46.87%.
Result for CC(C)n1cnnc1C1CCCN(S(=O)(=O)CC2CCCC2)C1 (stereo not shown) was LdMetRS: 10.78%; Mtb heat-shock: 2.267%.
Result for c1cnc(N2CCC3(COCc4cnc(N5CCOCC5)nc43)C2)nc1 (stereo not shown) was LdMetRS: 14.7%; Mtb heat-shock: -27.92%.
Result for CCc1nc2n(n1)CC(NCc1nc(-c3ccccn3)no1)CC2 (stereo not shown) was LdMetRS: 2.222%; Mtb heat-shock: 15.36%.
Result for CC(=O)NCC1CCN(C(=O)NCCc2ccc3c(c2)OCO3)CC1 was LdMetRS: 7.554%; Mtb heat-shock: -6.375%.
Result for CSCC(C)(O)CNS(=O)(=O)c1ccc(F)cc1 (stereo not shown) was LdMetRS: 12.15%; Mtb heat-shock: -6.761%.
Result for CCn1ncnc1CN1CCc2[nH]cnc2C1Cc1ccccc1 (stereo not shown) was LdMetRS: 2.338%; Mtb heat-shock: 13.67%.
Result for Cc1ccc(C(=O)N2Cc3c(CN4CCCCC4)nn(C)c3C2)cc1F was LdMetRS: 1.25%.
Result for CN1CCCN(C(C(=O)O)c2ccc3c(c2)OCO3)CC1 (stereo not shown) was LdMetRS: 15.08%; Mtb heat-shock: -7.059%.
Result for Cc1ccc(-c2nc(C(=O)N(C)CC(=O)N3CCCC3)cs2)c(C)c1 was LdMetRS: 16.72%; Mtb heat-shock: -8.726%.
Result for CC[C@H](C)[C@H](N)C(=O)Nc1nc(-c2cnc(N(C)C)nc2)cs1 was LdMetRS: 19.17%; Mtb heat-shock: -12.38%.
Result for O=C(NCc1ccon1)N1CCC(n2ccc(C(F)(F)F)n2)CC1 was LdMetRS: 16.77%; Mtb heat-shock: 25.35%.
Result for O=C(c1ccnn1-c1ccc2ccccn12)N1CCOCC1 was LdMetRS: 16.54%; Mtb heat-shock: 21.08%.

The values are deposited in ChEMBL (CHEMBL3988442, “University of Dundee, Small-Polar-MMV Screening Library” (2021)).